The text below walks through data of paper PMC6889377.

No constants are given. Whether binding was seen depends on the method and setting. In cells and extracts the contact can be indirect. Some results given as binding are weak or reduced against the parent protein; the word gives no strength. Sequences can lack the tags named with a protein.

The assay addresses T1, Flag-ELP5 (Elongator complex subunit 5) (UniProt Q8TE02).
T1 sequence: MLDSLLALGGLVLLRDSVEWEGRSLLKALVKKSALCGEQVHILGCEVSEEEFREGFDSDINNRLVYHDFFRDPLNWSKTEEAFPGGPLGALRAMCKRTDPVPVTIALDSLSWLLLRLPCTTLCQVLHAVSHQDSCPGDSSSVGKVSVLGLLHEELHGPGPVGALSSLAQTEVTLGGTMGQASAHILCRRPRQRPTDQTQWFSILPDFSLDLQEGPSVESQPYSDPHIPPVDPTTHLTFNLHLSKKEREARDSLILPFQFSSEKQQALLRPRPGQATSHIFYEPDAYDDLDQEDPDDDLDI
Put plainly: co-IP; GBC cells transfected with Flag-ELP5 for 48 h; IP lysis buffer (50 mM Tris-HCl pH 8.0, 150 mM NaCl, 1 mM EDTA, 0.5% NP-40, protease inhibitors); Anti-Flag M2 affinity gel overnight at 4 °C; immunoblotting. A general note: Immunoblotting shows a protein as a band on a membrane.

B1: ELP4 (protein, UniProt Q96EB1 1-424)
chain: MAAVATCGSVAASTGSAVATASKSNVTSFQRRGPRASVTNDSGPRLVSIAGTRPSVRNGQLLVSTGLPALDQLLGGGLAVGTVLLIEEDKYNIYSPLLFKYFLAEGIVNGHTLLVASAKEDPANILQELPAPLLDDKCKKEFDEDVYNHKTPESNIKMKIAWRYQLLPKMEIGPVSSSRFGHYYDASKRMPQELIEASNWHGFFLPEKISSTLKVEPCSLTPGYTKLLQFIQNIIYEEGFDGSNPQKKQRNILRIGIQNLGSPLWGDDICCAENGGNSHSLTKFLYVLRGLLRTSLSACIITMPTHLIQNKAIIARVTTLSDVVVGLESFIGSERETNPLYKDYHGLIHIRQIPRLNNLICDESDVKDLAFKLKRKLFTIERLHLPPDLSDTVSRSSKMDLAESAKRLGPGCGMMAGGKKHLDF
Regarding B1, the binding result was “binds”.
